By UniProt entry, the sequences of proteins in these tests, tags left out. Where a name states a change or a piece, a line headed by the entry shows the natural chain unless it says otherwise.
UniProt Q5NBY9: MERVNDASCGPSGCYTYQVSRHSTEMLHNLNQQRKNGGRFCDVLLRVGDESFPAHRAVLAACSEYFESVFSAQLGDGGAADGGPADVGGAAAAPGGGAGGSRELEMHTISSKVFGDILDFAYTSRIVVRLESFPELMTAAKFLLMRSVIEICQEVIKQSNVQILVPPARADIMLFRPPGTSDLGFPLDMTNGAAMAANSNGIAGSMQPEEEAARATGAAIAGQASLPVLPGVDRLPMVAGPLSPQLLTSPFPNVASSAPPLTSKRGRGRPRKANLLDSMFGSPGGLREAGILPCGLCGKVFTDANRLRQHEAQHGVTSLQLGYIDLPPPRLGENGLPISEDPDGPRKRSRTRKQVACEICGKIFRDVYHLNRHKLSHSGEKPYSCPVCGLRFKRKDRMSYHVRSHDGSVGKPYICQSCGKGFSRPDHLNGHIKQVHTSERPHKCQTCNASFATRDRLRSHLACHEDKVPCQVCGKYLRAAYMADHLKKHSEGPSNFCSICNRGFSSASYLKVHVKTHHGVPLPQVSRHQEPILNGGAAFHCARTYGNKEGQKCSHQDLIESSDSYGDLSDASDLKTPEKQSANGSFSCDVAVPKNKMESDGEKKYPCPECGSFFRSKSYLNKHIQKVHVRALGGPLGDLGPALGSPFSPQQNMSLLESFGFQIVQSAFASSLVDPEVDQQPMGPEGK

In PMC9468604:

Molecular target: PATZ1 BTB domain with C-terminal tagGFP (BTB-tagGFP) (mouse) (UniProt Q5NBY9)
Assay: two-hybrid; fluorescent two-hybrid (F2H) in live BHK-1 cells with a genomic LacO array; the tagGFP-BTB fusion is held at the LacO focus by GBP-LacI, a co-localised focus of the tagRFP-BTB fusion is scored by fluorescence microscopy 24 h after transfection; colocalization = percentage of GFP foci-positive cells also positive for RFP foci

binding: binds
B1: PATZ2 BTB domain (NLS-tagGFP-BTB or tagRFP-BTB fusion) (domain or fragment, UniProt O43167 10-133)
chain: GQLVVHSDAHSDTVLASFEDQRKKGFLCDITLIVENVHFRAHKALLAASSEYFSMMFAEEGEIGQSIYMLEGMVADTFGILLEFIYTGYLHASEKSTEQILATAQFLKVYDLVKAYTDFQNNHS

No constants are given. Whether binding was seen depends on the method and setting. A result given as binding can be weak or reduced; the word gives no strength. Where a sequence is shown, tags or fusion partners need not be part of it.
